{"source": "PubChem BioAssay AID1224830 – NIAID, 2016", "screen": "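Regulators of TLR4 signalling towards TNF-alpha in macrophage-like cells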 (primary screen)", "cells": "human THP-1 monocytic leukaemia cells, TNF dual-luciferase reporter clone, PMA-differentiated to macrophage-like cells", "reagent": "siRNA pool against human genes, 50 nM", "duration": "LPS for 4 h, given about 3 days after siRNA transfection", "conditions": "bacterial LPS (TLR4 ligand), 10 ng/ml", "detection": "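Ratio of firefly to renilla light, scaled to the plate median and expressed as a robust z-score per replicate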", "direction": "TNF reporter robust z-score: higher = stronger TNF reporter response to LPS", "active means": "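a well is active when its z-score exceeds 2.8 or falls below -1.5; control wells carry no call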", "note": "This is an unselected part of about 18,000 reagents tested. In the full data, about 2,900 (16%) were called active. 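Calls are made per well; low scores hint the gene aids the LPS response, high scores that it dampens it.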 Repeated entries: four replicate wells of each siRNA pool."}
{"gene": "ZNF213 (GeneID 7760)", "TNF reporter robust z-score": -0.12, "outcome": "inactive"}
{"gene": "ZNF213 (GeneID 7760)", "TNF reporter robust z-score": -0.08, "outcome": "inactive"}
{"gene": "ZNF213 (GeneID 7760)", "TNF reporter robust z-score": 0.01, "outcome": "inactive"}
{"gene": "ZNF213 (GeneID 7760)", "TNF reporter robust z-score": 0.2, "outcome": "inactive"}
{"gene": "BST2 (GeneID 684)", "TNF reporter robust z-score": 0.36, "outcome": "inactive"}
{"gene": "BST2 (GeneID 684)", "TNF reporter robust z-score": 0.08, "outcome": "inactive"}
{"gene": "BST2 (GeneID 684)", "TNF reporter robust z-score": -0.34, "outcome": "inactive"}
{"gene": "BST2 (GeneID 684)", "TNF reporter robust z-score": -0.2, "outcome": "inactive"}

The list goes on (2 carried over from the part before).
{"gene": "BST2 (GeneID 684)", "TNF reporter robust z-score": -0.34, "outcome": "inactive"}
{"gene": "BST2 (GeneID 684)", "TNF reporter robust z-score": -0.2, "outcome": "inactive"}
{"gene": "GPR160 (GeneID 26996)", "TNF reporter robust z-score": -0.84, "outcome": "inactive"}
{"gene": "GPR160 (GeneID 26996)", "TNF reporter robust z-score": -0.67, "outcome": "inactive"}
{"gene": "GPR160 (GeneID 26996)", "TNF reporter robust z-score": -0.6, "outcome": "inactive"}
{"gene": "GPR160 (GeneID 26996)", "TNF reporter robust z-score": -0.05, "outcome": "inactive"}
{"gene": "MDGA2 (GeneID 161357)", "TNF reporter robust z-score": 0.65, "outcome": "inactive"}
{"gene": "MDGA2 (GeneID 161357)", "TNF reporter robust z-score": 0.63, "outcome": "inactive"}
{"gene": "MDGA2 (GeneID 161357)", "TNF reporter robust z-score": 1.55, "outcome": "inactive"}
{"gene": "MDGA2 (GeneID 161357)", "TNF reporter robust z-score": 0.12, "outcome": "inactive"}
{"gene": "NDST1 (GeneID 3340)", "TNF reporter robust z-score": 0.91, "outcome": "inactive"}
{"gene": "NDST1 (GeneID 3340)", "TNF reporter robust z-score": 1.44, "outcome": "inactive"}
{"gene": "NDST1 (GeneID 3340)", "TNF reporter robust z-score": 0.03, "outcome": "inactive"}
{"gene": "NDST1 (GeneID 3340)", "TNF reporter robust z-score": 0.72, "outcome": "inactive"}
